Experimental data from patent US20220281980A1.
Results are given in words; binding and its absence hold for the method and conditions named. Some entries that bind do so weakly or less than the wild type. For some of these results: Sequences can lack the tags named with a protein.

Protein sequences, listed by entry. Tags and fused reporters are not part of them. Lines headed by an entry give the natural chain unless they say otherwise; changes in a name come on top. Residues count along the entry.
UniProt Q29983, residues 24-383: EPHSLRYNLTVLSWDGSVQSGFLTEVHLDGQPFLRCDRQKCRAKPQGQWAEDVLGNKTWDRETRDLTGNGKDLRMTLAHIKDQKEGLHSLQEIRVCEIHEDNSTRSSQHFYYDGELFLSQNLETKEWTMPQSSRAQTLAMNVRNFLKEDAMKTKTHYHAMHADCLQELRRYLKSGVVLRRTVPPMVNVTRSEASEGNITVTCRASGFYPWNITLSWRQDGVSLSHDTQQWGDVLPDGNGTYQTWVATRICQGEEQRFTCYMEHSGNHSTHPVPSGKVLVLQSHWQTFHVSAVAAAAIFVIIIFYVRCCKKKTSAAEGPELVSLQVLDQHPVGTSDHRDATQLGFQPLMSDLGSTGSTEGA
UniProt Q29980: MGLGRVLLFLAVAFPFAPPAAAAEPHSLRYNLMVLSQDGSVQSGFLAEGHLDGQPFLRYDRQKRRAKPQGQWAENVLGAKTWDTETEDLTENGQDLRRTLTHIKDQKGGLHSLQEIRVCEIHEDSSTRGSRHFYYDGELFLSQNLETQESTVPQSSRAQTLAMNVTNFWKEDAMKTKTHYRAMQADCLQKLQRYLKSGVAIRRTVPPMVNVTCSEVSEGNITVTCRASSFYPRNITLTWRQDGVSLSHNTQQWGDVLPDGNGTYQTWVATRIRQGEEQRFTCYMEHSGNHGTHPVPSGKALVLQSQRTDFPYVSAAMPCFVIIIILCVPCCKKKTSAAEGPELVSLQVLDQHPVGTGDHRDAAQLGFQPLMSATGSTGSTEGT

T1: MICA-ECD displayed on yeast (C-terminal myc-Aga1 fusion) (human) (UniProt Q29983)
T1 sequence: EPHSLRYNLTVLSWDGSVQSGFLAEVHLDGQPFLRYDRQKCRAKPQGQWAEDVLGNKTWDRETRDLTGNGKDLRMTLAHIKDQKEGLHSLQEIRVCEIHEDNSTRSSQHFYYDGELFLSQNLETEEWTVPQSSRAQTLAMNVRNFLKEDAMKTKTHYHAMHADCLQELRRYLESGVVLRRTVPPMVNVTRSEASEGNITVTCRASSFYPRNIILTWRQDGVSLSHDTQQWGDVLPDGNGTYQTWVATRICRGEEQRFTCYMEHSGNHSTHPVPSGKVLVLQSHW


Tests used:
[1] = target: human MICA/B endogenously expressed on HeLa cells (MICA allele *008) (human) (UniProt Q29983); experiment: flow cytometry (GMFI, FACSCalibur), HeLa cells
[2] = target: human MICA/B endogenously expressed on 786-O cells (MICA allele *008) (human) (UniProt Q29983); experiment: flow cytometry (GMFI, FACSCalibur), 786-O cells
[3] = target: human MICA/B endogenously expressed on RPMI-8226 cells (human) (UniProt Q29983); experiment: flow cytometry (GMFI, FACSCalibur), RPMI-8226 cells
[4] = target: human MICA/B endogenously expressed on 786-O cells (MICA allele *008) (human) (UniProt Q29983); experiment: flow cytometry (GMFI, FACSCalibur), 786-O cells (cross markers)
[5] = target: human MICA/B endogenously expressed on HeLa cells (MICA allele *008) (human) (UniProt Q29983); experiment: flow cytometry (GMFI, FACSCalibur), HeLa cells (upright triangles)
[6] = target: recombinant soluble human MICA*002 antigen (human) (UniProt Q29983); experiment: SPR (Biacore 3000), antibody captured on Protein G chip, MICA-002 antigen injected
[7] = target: recombinant soluble human MICA*004 antigen (human) (UniProt Q29983); experiment: SPR (Biacore 3000), antibody captured on Protein G chip, MICA-004 antigen injected
[8] = target: recombinant soluble human MICA*008 antigen (human) (UniProt Q29983); experiment: SPR (Biacore 3000), antibody captured on Protein G chip, MICA-008 antigen injected
[9] = target: recombinant soluble human MICA*009 antigen (human) (UniProt Q29983); experiment: SPR (Biacore 3000), antibody captured on Protein G chip, MICA-009 antigen injected
[10] = target: human MICB expressed on transduced cells (human) (UniProt Q29980); experiment: flow cytometry (GMFI, FACSCalibur), CHO cells with MICB; untransfected CHOs at 0 at 670 nM
[11] = target: human MICA*002 expressed on CHO cells (human) (UniProt Q29983); experiment: flow cytometry (GMFI, FACSCalibur), CHO cells with MICA*002; untransfected CHOs at 0 at 670 nM
[12] = target: human MICA*004 expressed on CHO cells (human) (UniProt Q29983); experiment: flow cytometry (GMFI, FACSCalibur), CHO cells with MICA*004; untransfected CHOs at 0 at 670 nM
[13] = target: human MICA*008 expressed on CHO cells (human) (UniProt Q29983); experiment: flow cytometry (GMFI, FACSCalibur), CHO cells with MICA*008; untransfected CHOs at 0 at 670 nM
[14] = target: human MICA*009 expressed on CHO cells (human) (UniProt Q29983); experiment: flow cytometry (GMFI, FACSCalibur), CHO cells with MICA*009; untransfected CHOs at 0 at 670 nM
[15] = target: human MICA*010 expressed on CHO cells (human) (UniProt Q29983); experiment: flow cytometry (GMFI, FACSCalibur), CHO cells with MICA*010; untransfected CHOs at 0 at 670 nM
[16] = target: T1, MICA-ECD displayed on yeast (C-terminal myc-Aga1 fusion) (human); experiment: yeast surface display of MICA-ECD, flow cytometry
[17] = target: human MICB expressed on transduced cells (human) (UniProt Q29980); experiment: Scatchard analysis, 125I-MICA.36 on transduced CHO cells
[18] = target: human MICB expressed on transduced cells (human) (UniProt Q29980); experiment: flow cytometry, transfected CHO cells
[19] = target: human MICB expressed on transduced cells (human) (UniProt Q29980); experiment: flow cytometry (GMFI, FACSCalibur), CHO cells with MICB

| binding [1] | binding [2] | binding [3] | binding [4] | binding [5] | binding [6] | binding [7] | binding [8] | binding [9] | binding [10] | binding [11] | binding [12] | binding [13] | binding [14] | binding [15] | binding [16] | binding [17] | binding [18] | binding [19] | Binder |
| --- | --- | --- | --- | --- | --- | --- | --- | --- | --- | --- | --- | --- | --- | --- | --- | --- | --- | --- | --- |
| binds | binds | binds | binds | binds | binds | binds | binds | binds | binds | binds | binds | binds | binds | binds |  |  |  |  | 16A5 (antibody, V domains shown) VH: QVQLVESGGDVVQPGRSLRLSCAASGFTFSNYNIHWVRQAPGKGLEWVAVIRYDGINKYYADSVKGRFIISRDNSKNTLYLQMNSLRAEDTAVYYCASGPPDAFNIWGQGTMVTVSS VL: AIQLTQSPSSLSASVGDRVTITCRASQGISSALAWYQQKPGKVPKSLIYDASSLESGVPSRFSGSGSGTDFTLTISSLQPEDFATYYCQQFNSYPITFGQGTRLEIK |
|  |  |  |  |  |  |  |  |  |  |  |  |  |  |  | binds | binds |  |  | MICA.36 (antibody, V domains shown) VH: QVQLVESGGGVVQPGRSLRLSCAASGFTFSNYAMHWVRQAPGEGLEWVALIWYDGSNKFYGDSVKGRFTISRDNSKNTLYLQMNSLSAEDTAVYYCAREGSGHYWGQGTLVTVSS VL: AIQLTQSPSSLSASVGDRVTITCRASQGISSALAWYQQKPGKVPKSLIYDASSLESGVPSRFSGSGSGTDFTLTISSLQPEDFATYYCQQFNSYPITFGQGTRLEIK |
| binds | binds | binds |  |  |  |  |  |  |  |  |  |  |  |  |  |  | binds | binds | 19G6 (antibody, V domains shown) VH: QVQLVESGGGVVQPGRSLRLSCAASGFTFSNYAMHWVRQAPGEGLEWVALIWYDGSNKFYGDSVKGRFTISRDNSKNTLYLQMNSLSAEDTAVYYCAREGSGHYWGQGTLVTVSS VL: AIQLTQSPSSLSASVGDRVTITCRASQGISSALAWYQQKPGKVPKSLIYDASSLESGVPSRFSGSGSGTDFTLTISSLQPEDFATYYCQQFNSYPITFGQGTRLEIK |
